# Laboratory results taken from paper PMC4263763, “Crystal Structure of Calcium Binding Protein-5 from Entamoeba histolytica and Its Involvement in Initiation of Phagocytosis of Human Erythrocytes” (PLoS Pathogens, 2014).
# The chains behind the UniProt entries cited, without tags or fusion partners. Residues count along the entry.
# UniProt P02769, residues 25-607: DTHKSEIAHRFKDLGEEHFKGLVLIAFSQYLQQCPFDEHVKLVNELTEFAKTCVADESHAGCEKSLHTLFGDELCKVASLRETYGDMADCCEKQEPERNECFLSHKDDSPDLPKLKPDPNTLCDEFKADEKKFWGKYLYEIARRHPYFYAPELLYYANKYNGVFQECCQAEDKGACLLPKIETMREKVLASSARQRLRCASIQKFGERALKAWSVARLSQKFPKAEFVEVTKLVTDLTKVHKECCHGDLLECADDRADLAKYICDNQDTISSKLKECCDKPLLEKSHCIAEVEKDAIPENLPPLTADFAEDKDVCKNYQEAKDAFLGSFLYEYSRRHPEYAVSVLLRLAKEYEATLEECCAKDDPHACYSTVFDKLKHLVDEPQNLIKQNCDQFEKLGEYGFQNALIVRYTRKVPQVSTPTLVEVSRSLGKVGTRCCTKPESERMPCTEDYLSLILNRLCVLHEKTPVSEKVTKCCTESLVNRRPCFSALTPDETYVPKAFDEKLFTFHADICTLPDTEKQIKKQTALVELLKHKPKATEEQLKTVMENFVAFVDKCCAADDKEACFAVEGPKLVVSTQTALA
# No constants are given. Whether binding was seen depends on the method and setting. Tags and fused reporters may be left off the sequences shown.
# Biological target: T1, IQ motif peptide of myosin 1B (native) (Entamoeba histolytica)
# T1 sequence (peptide): IQKAWKGYRNRKR
# Assay: SPR; both purified
substance,measurement,value
bovine serum albumin (from UniProt P02769 25-607),binding,no binding (tested: 750 nM)
